# Test results taken from the supplement of paper PMC3334620.
# Over roughly 33,000 sequences, “E-score (-0.5 to 0.5)” has its median near -0.0059; the highest 2% begin near 0.26. The list shows a part of the results.
# Biological target: T1, Cin5 (UniProt P40917)
# T1 sequence: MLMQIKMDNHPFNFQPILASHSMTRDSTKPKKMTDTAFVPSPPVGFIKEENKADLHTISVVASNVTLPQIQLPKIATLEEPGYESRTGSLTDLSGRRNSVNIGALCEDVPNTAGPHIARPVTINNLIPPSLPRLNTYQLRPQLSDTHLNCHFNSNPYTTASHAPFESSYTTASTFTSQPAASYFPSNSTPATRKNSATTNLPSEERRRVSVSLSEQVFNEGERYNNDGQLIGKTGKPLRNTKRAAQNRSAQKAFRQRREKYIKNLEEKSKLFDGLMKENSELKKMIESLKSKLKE
# Assay: PBM E-score (8-mer binding enrichment) (E-score (-0.5 to 0.5)); higher = stronger / more preferred TF binding
# Conditions: protein concentration: 100 nM; construct: GST-full length
# In short: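 Universal all-10-mer Agilent arrays, fresh or stripped once, were converted to double-stranded form by primer extension. GST-tagged yeast transcription factors from PURExpress in vitro transcription/translation, full-length or DNA-binding domain only, were applied at about 100-200 nM and detected with fluorescent anti-GST. After masliner normalisation, the Universal PBM Analysis Suite scored each ungapped eight-base word together with its reverse complement by E-score.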
row,Sequence,PBM E-score
1,ACGATCGC,0.19
2,AGGGACAA,-0.0892
3,ACCCCCTA,-0.47
4,GTAAAGGA,0.00639
5,CACTTGAG,0.0203
6,AAATGATT,0.294
7,AGATATCC,0.167
8,ATGTCAGA,0.114
9,AGGTCTCG,-0.217
10,GTTTCGAA,0.0691
11,AGCCCCCA,-0.432
12,TCCTTGCA,-0.145
13,GTACGAAC,0.0851
14,GCAGAACA,0.154
15,GACCAGAA,0.0134
16,ACCAACCG,0.0498
17,GCGAGGCC,-0.172
18,ACGAATAA,0.144
19,GCCGGGCC,-0.256
20,GGGCCTTA,-0.106
21,AGGGGAGA,-0.286
22,AGTGTACA,-0.0933
23,TTTTAAAA,-0.0381
24,CGCAGTCC,-0.221
25,GAGGCTTA,0.169

row,Sequence,PBM E-score
1,CTTCCAAC,0.00872
2,GTGGCTTA,0.0222
3,CGGTAGGC,-0.195
4,CGTAGCAA,0.0114
5,GAGCTTTA,-0.0441
6,GCGGGACC,-0.0947
7,TAGACGGA,0.0538
8,AAGCTGCT,0.0668
9,ACACGTAG,-0.151
10,ACCTCACT,0.0509
11,CCTCGAGA,0.0341
12,ACACATAA,0.274
13,CCCCTTAA,-0.269
14,TCTCGGCA,-0.0987
15,AACGGGAG,-0.0138
16,TCACGCGA,0.0021
17,GCACGCAC,-0.302
18,GTCCCGGA,-0.0399
19,CAAGACGG,-0.0852
20,ACCGAATA,0.00263
21,ACCATCGT,-0.12
22,CAGATGGG,-0.127
23,GAGTTTTA,0.0503
24,AGCACAAA,0.175
25,CACCATGC,-0.117

row,Sequence,PBM E-score
1,CCTAGTAG,-0.249
2,ATTGATAA,0.157
3,CCCGACGA,-0.072
4,CCTGGTAA,0.0322
5,CGGCGTTC,-0.179
6,GCGGAATA,0.154
7,GCATGAAC,0.129
8,CGCGTCTC,0.0382
9,TCAGGACA,-0.00718
10,CATCGCAC,-0.127
11,GACCGTTA,0.0179
12,GCGGTAGA,-0.0884
13,CGCATACA,0.0927
14,TATACAGA,0.22
15,ACTCTTAT,0.209
16,GGCGTTCA,-0.124
17,ACCTAAAA,0.0709
18,ACCCACTG,0.064
19,CAGTACCC,-0.152
20,TATTACCA,0.173
21,CCAGTAGG,-0.17
22,CTCCTAGC,-0.259
23,ACGAATAG,0.0703
24,ACTCTCCG,-0.0673
25,ACACTACA,0.138

row,Sequence,PBM E-score
1,TCCCGCAA,0.105
2,CGTGACGA,0.0102
3,GATCACGC,0.197
4,ACGGAGGC,-0.257
5,GGAGTTGA,-0.0713
6,CGAGTCGC,-0.247
7,AAGCGCAT,0.162
8,GACAACAC,0.0247
9,ACCAATTA,0.266
10,TATAGTAA,0.324
11,CCCCCCTC,-0.465
12,TAGTACGA,0.0374
13,CGATCCCC,-0.159
14,AGCGGCCA,-0.267
15,AAATCACA,0.00243
16,AAAATAGA,0.187
17,ATTCAGTC,-0.0704
18,GATGCTAC,0.032
19,CCCGTGCC,-0.294
20,ACGAGAGA,-0.0604
21,AGCTACAA,0.0604
22,ATGATGGC,0.0266
23,AAAATCTA,-0.0459
24,CTATGAGA,-0.0703
25,AAACTCTA,-0.00419

# Some of the entries above in another layout:
row | Sequence | PBM E-score
14 | AGCGGCCA | -0.267
15 | AAATCACA | 0.00243
16 | AAAATAGA | 0.187

# (listing goes on)

row,Sequence,PBM E-score
1,CAGGTTAA,-0.00727
2,CAGTTATC,-0.0632
3,AGTGCTGC,-0.118
4,AACCCATA,0.29
5,AGCTCAAC,0.0126
6,AGTGACTG,-0.0233
7,GCTCCACC,-0.317
8,ACCCCTCG,-0.167
9,ATCGCCGG,-0.0423
10,ACCGTCGG,-0.256
11,GTTTTTAA,0.0998
12,ACATGATG,-0.024
13,AATTACGG,0.141
14,ATAGAATC,-0.0878
15,AATGAAAT,0.233
16,AACTCGGT,0.0563
17,TCTCTGAA,-0.143
18,AGTATCCC,0.0604
19,AACATTGT,0.085
20,GCTCTACC,-0.288
21,AAAAAGAA,0.141
22,AGCCCGGC,-0.139
23,AAAGTACT,0.004
24,CCCACAGC,-0.192
25,CATCCACC,0.14

row,Sequence,PBM E-score
1,GTAAGAAA,0.131
2,CCAGACCG,-0.0813
3,ATTAGTGA,0.143
4,GTGAGTCA,0.00801
5,CATAACCA,0.133
6,AGCATTGG,0.0399
7,AGCCTCGC,-0.119
8,AACGAGTC,-0.105
9,GTACAAAC,0.0903
10,GCGTGGAA,0.106
11,GGCATGTA,0.00303
12,TATGGTAA,0.288
13,ATAATTAG,0.241
14,TCCCATCA,-0.142
15,AAAGCGTC,-0.113
16,ACCATGTG,0.116
17,ATCATGCC,0.0752
18,TGGAAGAA,0.0993
19,ACTCTACC,0.01
20,GGTGGTAA,0.108
21,AACCCAGG,-0.121
22,AGTCGGTA,-0.166
23,ATTGCGAA,-0.0775
24,GTCAAGTA,-0.221
25,AGTAAAAG,0.176

row,Sequence,PBM E-score
1,GTCCACTA,0.0349
2,AAAGAGTG,-0.0649
3,CACTGCGC,-0.0301
4,CGAAAGTC,-0.0412
5,CAAAAGTG,0.111
6,CGCTGTCC,-0.0216
7,GAGACTCC,-0.114
8,AGGAGAGA,-0.159
9,GCATTCAC,0.114
10,ACATCGGC,-0.0361
11,AAGAATAA,0.0631
12,ACAATAGT,0.157
13,AACAGACG,-0.0493
14,AAACTTCG,-0.0351
15,GCAAAGAC,0.00763
16,ACTTGGAA,-0.0703
17,ACGGCAAG,-0.0312
18,ATCTGGCA,-0.0355
19,CCAGACGA,-0.176
20,AATGCCAC,-0.0464
21,GTCGTATA,0.103
22,CTACATGC,-0.0298

# Some of the entries so far, with bars between the fields.
row | Sequence | PBM E-score
6 | CGCTGTCC | -0.0216
7 | GAGACTCC | -0.114
8 | AGGAGAGA | -0.159
9 | GCATTCAC | 0.114
10 | ACATCGGC | -0.0361
11 | AAGAATAA | 0.0631
12 | ACAATAGT | 0.157
